# This is one part of the list. Further columns of the screen follow, without active or inactive calls. The list favours compounds with an active or inconclusive main result. The note in brackets gives the kind of curve behind each potency; many fits are weak.
# Experiment: qHTS Assay for Lipid Storage Modulators in Drosophila S3 Cells;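 as to cell number change: cells counted by Cell Tracker Red CMTPX staining in the red channel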
# Details: BODIPY lipid droplet fluorescence, 18-24 h; for cell number change: measured here: cell count max response, cells fed with added oleic acid
# How it was run: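 Laser-scanning cytometry quantifies lipid droplet accumulation (500–530 nm total intensity; droplet/cell object ratio) in oleic acid-fed (400 uM added) Drosophila S3 cells treated with a concentration series. 20 uM Triacsin C defined 100% inhibition.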
# [1] = measured here: lipid fluorescence (Fed channel) AC50, cells fed with added oleic acid
# [2] = measured here: cell number channel AC50, cells fed with added oleic acid
Compound,AC50 [1],cell number change [%],AC50 [2]
Cc1c(C(=O)NCCN(C)C)oc2ccc(S(=O)(=O)N3CCCC3)cc12,"0.164 µM [falling, full curve]",–,–
Cc1c(C=N)c(O)n(C)c(=O)c1C#N,"0.13 µM [falling, full curve, poor fit]",4.35,–
CCOC(=O)CSc1nc(C(C)(C)C)cc(C(F)(F)F)c1C#N,"25.9 µM [falling, partial curve]",-12.5,–
Cn1c(=O)n(C)c2cc(NC(=O)COc3ccccc3)ccc21,–,-22.9,–
COc1cc(CCC(=O)OCC(=O)Nc2sccc2C(N)=O)cc(OC)c1OC,–,202,–
COc1ccccc1-c1nnc2sc(-c3ccc(N(C)C)cc3)nn12,"1.64 µM [falling, partial curve, poor fit]",-5.77,–
COc1ccc(N(CC(=O)Nc2cccnc2)S(=O)(=O)c2ccc(C)cc2)cc1Cl,"0.82 µM [rising, full curve]",13,–
COc1ccc(CCC(=O)NNC(=O)Nc2ccc(C(C)=O)cc2)cc1,"4.11 µM [rising, single point]",7.33,–
O=C(NCc1ccncc1)C(=O)NCC1OCCCN1S(=O)(=O)c1ccccc1 (stereo not drawn),–,10.2,–
NS(=O)(=O)c1ccc(NCC2COc3ccccc3O2)c([N+](=O)[O-])c1 (stereo not drawn),–,-15.6,–
CC(NC(=O)C(=S)N1CCN(C)CC1)c1ccccc1 (stereo not drawn),–,19.9,–
Cc1cc(S(=O)(=O)N2CCCOC2CNC(=O)C(=O)NCc2cccs2)ccc1F (stereo not drawn),"0.0058 µM [rising, full curve, poor fit]",13.6,–
Cc1nc2ccc(NC(=O)Cc3ccsc3)cc2s1,"0.164 µM [rising, full curve, poor fit]",11.7,–
COc1ccc(/C=N/Nc2cc(N3CCOCC3)nc(C)n2)c(OC)c1,–,-51.4,"5.17 µM [falling, partial curve, poor fit]"
CC(Sc1nc2ccc(C(=O)c3ccccc3)cc2[nH]1)C(=O)O (stereo not drawn),"6.51 µM [falling, single point]",-2.47,–
Cc1nnc(-c2cnn(C)c2N)n1Cc1cccc(Cl)c1,–,30.3,"2.06 µM [rising, full curve, poor fit]"
COC(=O)c1cnn2c1C(=O)N(Cc1cccs1)CC2,"16.4 µM [falling, single point]",-28.7,"0.116 µM [falling, full curve]"
CCOC(=O)/C=C1\SCC(=O)N1CC(=O)NCCOC,–,-47.9,"29.1 µM [falling, single point]"
CC(C)=C(NC(=O)c1ccccc1)C(=O)NCCc1nc2ccccc2[nH]1,–,10.6,–
Cc1ccc(C)c(N2CCN(C(=O)CSc3ccsc3[N+](=O)[O-])CC2)c1,"0.00651 µM [rising, full curve, poor fit]",7.16,–

Compound,AC50 [1],cell number change [%],AC50 [2]
Cc1ccc([N+](=O)[O-])c(C)[n+]1C,"0.82 µM [falling, full curve]",-75.7,–
Cc1csc2c(=O)n(CCO)c(=O)[nH]c12,"0.0326 µM [falling, full curve, poor fit]",-15.8,–
CCOc1cc(CNS(=O)(=O)c2cn(C)cn2)cc(OCC)c1OCC,"6.51 µM [falling, single point]",-33.1,"4.11 µM [falling, partial curve, poor fit]"
CCC1(c2ccc(OC)cc2)NC(=O)N(CC(=O)NC2CCCCC2C)C1=O (stereo not drawn),–,30.4,"1.3 µM [falling, partial curve]"
CCOC(=O)CSc1nc2sccc2c(=O)[nH]1,"29.1 µM [falling, single point]",-33.4,"29.1 µM [falling, single point]"
CCC(C)N(C(=O)CSc1nc(C)c(C)c(C)c1C#N)C1CCS(=O)(=O)C1 (stereo not drawn),–,-8.82,–
C/C(Cl)=C/Cn1c(=O)c2c(nc(Br)n2Cc2ccccc2)n(C)c1=O,"29.1 µM [rising, single point]",45.5,"3.26 µM [rising, full curve]"
O=C(c1ccc(-c2cccc([N+](=O)[O-])c2)o1)N1CCN(c2ccc([N+](=O)[O-])cc2)CC1,"3.66 µM [rising, partial curve]",–,–
CCCCCSc1nc(O)cc(=O)[nH]1,–,-16.1,"1.64 µM [falling, partial curve, poor fit]"
O=C(C1CCN(S(=O)(=O)c2ccc(Cl)cc2)CC1)N1CCN(c2ccccn2)CC1,"6.51 µM [rising, single point]",2.96,"4.11 µM [rising, single point]"
CC1Cc2ccccc2N1S(=O)(=O)c1cccc(C(=O)N2Cc3ccccc3CC2C(N)=O)c1 (stereo not drawn),"29.1 µM [falling, single point]",-11.7,–
COc1ccc(OC)c(C(=O)c2ccc(C(=O)N3CCCCC3)cc2)c1,–,-2.4,–
Cc1sc2nc(Cc3ccccc3)[nH]c(=O)c2c1-c1ccccc1,"4.61 µM [rising, partial curve]",22.2,–
CCC(C(=O)Nc1cc(C)nn1-c1nc(C)cc(C)n1)c1ccccc1 (stereo not drawn),–,-5.61,–
CCN(C(=O)c1ccc(C(C)(C)C)cc1)c1nnc(Cn2nnc3ccccc32)s1,"29.1 µM [falling, partial curve, poor fit]",-53.4,"16.4 µM [falling, partial curve, poor fit]"
CCN(CC)c1cnn(C/C(=N\OC)c2ccc(Cl)cc2)c(=O)c1Br,–,–,"1.84 µM [rising, partial curve]"
CCN(CCCC(=O)c1ccc(F)cc1)CCc1ccccc1,"16.4 µM [rising, partial curve]",-1.65,–
O=C(NNc1nc(-c2ccc(F)cc2)cs1)c1ccccc1,–,-15.7,–
Cc1cccc(-c2cc3nc(C)cc(N4CC(C)CC(C)C4)n3n2)c1 (stereo not drawn),"3.26 µM [falling, partial curve]",-10.2,–
O=C(CCCC1=NS(=O)(=O)c2ccccc2N1)OCc1ccc(Cl)cc1,"4.11 µM [rising, single point]",–,"7.31 µM [rising, partial curve, poor fit]"

# Two of these compounds in another layout.
Compound | AC50 [1] | cell number change [%] | AC50 [2]
Cc1ccc([N+](=O)[O-])c(C)[n+]1C | 0.82 µM [falling, full curve] | -75.7 | –
C/C(Cl)=C/Cn1c(=O)c2c(nc(Br)n2Cc2ccccc2)n(C)c1=O | 29.1 µM [rising, single point] | 45.5 | 3.26 µM [rising, full curve]

# — PubChem BioAssay AID2685 (National Center for Advancing Translational Sciences (NCATS), 2010)
